PMC4723226
No constants are given. Whether binding was seen depends on the method and setting. In cells and extracts the contact can be indirect. Some results given as binding are weak or reduced against the parent protein; the word gives no strength. Tags and fused reporters may be left off the sequences shown.

Target: T1, Flag-SMYD1 (not stated (human or mouse cDNA cloned)) (UniProt Q8NB12)
T1 sequence: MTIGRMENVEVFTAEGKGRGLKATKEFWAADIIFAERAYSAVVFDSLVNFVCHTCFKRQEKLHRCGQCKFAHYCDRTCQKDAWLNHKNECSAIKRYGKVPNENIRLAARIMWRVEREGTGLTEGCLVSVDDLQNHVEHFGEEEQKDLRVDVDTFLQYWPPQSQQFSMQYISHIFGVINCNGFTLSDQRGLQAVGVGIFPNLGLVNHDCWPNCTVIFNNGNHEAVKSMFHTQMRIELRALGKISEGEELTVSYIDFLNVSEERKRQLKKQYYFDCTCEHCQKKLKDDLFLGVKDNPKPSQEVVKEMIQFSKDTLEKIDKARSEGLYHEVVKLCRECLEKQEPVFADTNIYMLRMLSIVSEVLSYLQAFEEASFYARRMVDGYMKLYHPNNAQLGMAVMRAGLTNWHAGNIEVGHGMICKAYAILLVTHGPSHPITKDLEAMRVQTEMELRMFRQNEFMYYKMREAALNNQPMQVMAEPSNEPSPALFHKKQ
Assay: co-IP; 293T cells transfected with Flag-SMYD1 and HA-SRF constructs (whole or deletion mutants); lysates immunoprecipitated with anti-Flag (Fig 4A also anti-HA) antibody; western blot with anti-HA or anti-Flag

binding: binds
B1: HA-SRF (protein, UniProt P11831 1-508)
chain: MLPTQAGAAAALGRGSALGGSLNRTPTGRPGGGGGTRGANGGRVPGNGAGLGPGRLEREAAAAAATTPAPTAGALYSGSEGDSESGEEEELGAERRGLKRSLSEMEIGMVVGGPEASAAATGGYGPVSGAVSGAKPGKKTRGRVKIKMEFIDNKLRRYTTFSKRKTGIMKKAYELSTLTGTQVLLLVASETGHVYTFATRKLQPMITSETGKALIQTCLNSPDSPPRSDPTTDQRMSATGFEETDLTYQVSESDSSGETKDTLKPAFTVTNLPGTTSTIQTAPSTSTTMQVSSGPSFPITNYLAPVSASVSPSAVSSANGTVLKSTGSGPVSSGGLMQLPTSFTLMPGGAVAQQVPVQAIQVHQAPQQASPSRDSSTDLTQTSSSGTVTLPATIMTSSVPTTVGGHMMYPSPHAVMYAPTSGLGDGSLTVLNAFSQAPSTMQVSHSQVQEPGGVPQVFLTASSGTVQIPVSAVQLHQMAVIGQQAGSSSNLTELQVVNLDTAHSTKSE
